According to EP4524159A1, “ANTIBODY AND USE THEREOF” (Sichuan Huiyu Pharmaceutical Co., Ltd., priority 2022, dated 2023):
Positions count from the first letter of the chain named. These are yes or no findings as the source states them, for the method shown. Some results given as binding are weak or reduced against the parent protein; the word gives no strength.

B1: 1CP-152 (antibody, human IgG1, kappa, V domains shown)
VH: EVQLVESGGGLVQPGRSLRLSCTTSGLTFTHYHMSWVRQAPGKGLEWVAIIRNKAYGYTTDYSASVRGRFTISRDDSKSILYLQMNSLKTEDTAVYYCVREGGYGYDGTFAYWGQGTLVTVSS
VL: DIQMTQSPSSLSASVGDRVTITCRASESVDNYGISFMNWFQQKPGQAPKLLIYAASNQGSGVPSRFSGSGSGTDFTLTISSMQPEDFATYYCQQSKEVPRTFGGGTKVEIKR
B2: 1CP-157 (antibody, human IgG1, kappa, V domains shown)
VH: B1 VH with L45P
VL: B1 VL with A47P
B3: 1CP-117 (antibody, human IgG1, kappa, V domains shown)
VH: QVQLVQSGSELKKPGASVKVSCKASGYTLTDFSMHWVRQAPGQGLEWMGWINTETGAPTYADDFKGRFVLSLDTSVSTAYLQISSLKAEDTAVYYCSRGRDYDPHFDYWGQGTLVTVSS
VL: EIVLTQSPATLSLSPGERATLSCRASQSISDFLHWYQQKPGQSPRLLIKYASQSISGIPARFSGSGSGSDFTLTISSVEPEDFAVYYCQSAHSFPYTFGQGTKLEIKR
B4: 1CP-121 (antibody, human IgG1, kappa, V domains shown)
VH: B3 VH
VL: B3 VL with P40S
B5: 1CP-124 (antibody, human IgG1, kappa, V domains shown)
VH: QVQLVQSGAEVKKPGASVKVSCKASGYNFISYWLHWVRQAPGQGLEWMGGIYPGNTDTTYNQKFKGRVTMTRDTSTSTVYMELSSLRSEDTAVYYCIRYDYDRGMDYWGQGTLVTVSS
VL: DIQMTQSPSSLSASVGDRVTITCRASEDIYYRLAWYQQKPGKAPKLLISGATALETGVPSRFSGSGSGKDYTFTISSLQPEDIATYYCQHYWNIPWTFGQGTKVEIKR
B6: 1CP-125 (antibody, human IgG1, kappa, V domains shown)
VH: B5 VH with R72A
VL: B5 VL

target: CynoCDCP1 (Macaca fascicularis); assay: Caterra SPR, antigen immobilized

binding, binds:
B1, B2, B3, B4, B5, B6
